Assay results from paper PMC2779847.
These are yes or no findings as the source states them, for the method shown. Some results given as binding are weak or reduced against the parent protein; the word gives no strength.

Molecular target: M. smegmatis core RNA polymerase (α2ββ'ω) (M. smegmatis) (UniProt A0QSL8)
Experiment: reconstitution of the holoenzyme; M. smegmatis core RNA polymerase mixed with M. tuberculosis σ^A or σ^B (0.25 or 0.95 µM core, 0.5 or 1.9 µM sigma); holoenzymes then used for a pull-down on biotinylated msdps2 promoter DNA (western blot for sigma) and for run-off transcription; both …

In the case of “M. tuberculosis sigma factor σ^B (from UniProt P9WGI5 1-323)”, the binding is reported as “binds”.
“M. tuberculosis sigma factor σ^A (from UniProt P9WGI1 1-528)” was tested, and the binding was “binds”.
